Experimental data: paper PMC7780724
Results are given in words; binding and its absence hold for the method and conditions named. Binding seen in cells or lysates may run through a third protein. Some entries that bind do so weakly or less than the wild type. Tags and fused reporters may be left off the sequences shown.

Experiments:
Assay in all cases: pull-down; GST or GST-tagged Tpk1, 2 or 3 bound to glutathione sepharose beads, incubated 2 h at 4°C with pre-cleared extracts of nitrogen-starved yeast cells expressing Gap1-HA; binding buffer PBS 1x, 0.05% Triton X-100, 0.1 mM DTT; washed three times with PBS-T; Western blot with HRP-coupled anti-HA antibody; only the target purified
[1] = biological target: T1, GST-tagged Tpk1, catalytic subunit of PKA (S. cerevisiae) (UniProt P06244)
T1 sequence: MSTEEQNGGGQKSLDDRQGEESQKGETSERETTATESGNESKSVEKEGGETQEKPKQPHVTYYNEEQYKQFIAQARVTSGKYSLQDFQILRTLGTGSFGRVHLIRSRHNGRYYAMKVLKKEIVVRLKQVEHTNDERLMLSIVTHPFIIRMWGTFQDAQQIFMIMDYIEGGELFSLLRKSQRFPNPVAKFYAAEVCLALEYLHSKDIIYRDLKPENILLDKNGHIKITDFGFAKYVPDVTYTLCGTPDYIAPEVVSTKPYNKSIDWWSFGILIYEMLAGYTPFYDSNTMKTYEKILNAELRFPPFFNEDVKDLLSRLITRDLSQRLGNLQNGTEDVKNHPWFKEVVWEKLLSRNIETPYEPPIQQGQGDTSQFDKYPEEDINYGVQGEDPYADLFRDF

[2] = biological target: T2, GST-tagged Tpk3, catalytic subunit of PKA (S. cerevisiae) (UniProt P05986)
T2 sequence: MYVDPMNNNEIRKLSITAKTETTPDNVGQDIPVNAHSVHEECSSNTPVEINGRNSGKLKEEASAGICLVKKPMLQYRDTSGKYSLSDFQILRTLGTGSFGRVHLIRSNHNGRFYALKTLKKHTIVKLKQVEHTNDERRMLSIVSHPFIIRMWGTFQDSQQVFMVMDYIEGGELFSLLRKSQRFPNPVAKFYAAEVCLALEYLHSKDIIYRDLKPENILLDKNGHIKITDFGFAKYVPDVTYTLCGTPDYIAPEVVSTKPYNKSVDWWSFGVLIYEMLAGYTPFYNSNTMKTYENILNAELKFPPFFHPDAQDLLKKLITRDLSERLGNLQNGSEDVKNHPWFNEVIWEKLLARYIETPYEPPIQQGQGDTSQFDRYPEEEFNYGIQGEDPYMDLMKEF

[3] = biological target: T3, GST-tagged Tpk2, catalytic subunit of PKA (S. cerevisiae) (UniProt P06245)
T3 sequence: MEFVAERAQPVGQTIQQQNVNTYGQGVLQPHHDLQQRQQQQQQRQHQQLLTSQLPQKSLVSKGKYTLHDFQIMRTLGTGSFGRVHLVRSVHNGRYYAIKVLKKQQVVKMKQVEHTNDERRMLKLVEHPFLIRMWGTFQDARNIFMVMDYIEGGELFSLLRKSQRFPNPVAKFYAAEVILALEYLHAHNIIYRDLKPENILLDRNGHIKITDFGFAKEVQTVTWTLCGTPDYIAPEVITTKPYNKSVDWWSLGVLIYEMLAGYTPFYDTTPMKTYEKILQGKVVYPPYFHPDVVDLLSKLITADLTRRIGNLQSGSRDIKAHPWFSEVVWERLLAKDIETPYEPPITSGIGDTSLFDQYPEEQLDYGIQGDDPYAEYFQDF

Measured: binding

B1: HA-tagged Gap1 amino acid transceptor (protein, UniProt P19145 1-602)
chain: MSNTSSYEKNNPDNLKHNGITIDSEFLTQEPITIPSNGSAVSIDETGSGSKWQDFKDSFKRVKPIEVDPNLSEAEKVAIITAQTPLKHHLKNRHLQMIAIGGAIGTGLLVGSGTALRTGGPASLLIGWGSTGTMIYAMVMALGELAVIFPISGGFTTYATRFIDESFGYANNFNYMLQWLVVLPLEIVSASITVNFWGTDPKYRDGFVALFWLAIVIINMFGVKGYGEAEFVFSFIKVITVVGFIILGIILNCGGGPTGGYIGGKYWHDPGAFAGDTPGAKFKGVCSVFVTAAFSFAGSELVGLAASESVEPRKSVPKAAKQVFWRITLFYILSLLMIGLLVPYNDKSLIGASSVDAAASPFVIAIKTHGIKGLPSVVNVVILIAVLSVGNSAIYACSRTMVALAEQRFLPEIFSYVDRKGRPLVGIAVTSAFGLIAFVAASKKEGEVFNWLLALSGLSSLFTWGGICICHIRFRKALAAQGRGLDELSFKSPTGVWGSYWGLFMVIIMFIAQFYVAVFPVGDSPSAEGFFEAYLSFPLVMVMYIGHKIYKRNWKLFIPAEKMDIDTGRREVDLDLLKQEIAEEKAIMATKPRWYRIWNFWC
binds: all assays above
